Patent publication US12678438B2, “Treatment of cancer with CDK inhibitors” (THE TRUSTEES OF THE UNIVERSITY OF PENNSYLVANIA, priority 2019, dated 2026)
At least one structure is not confirmed: it was looked up by name or label, or the drawing left a doubt.

System: p-MED1 (p-T1457 MED1)
Experiment: Immunoblot of p-MED1 in AR-positive PCa cell lines (VCaP, LNCaP, 22RV1)
Format: cell-based, human
Details: standard culture conditions, 24 h (THZ1 and LDC also with DHT stimulation)
Experimental: Cell lysates were prepared with RIPA buffer (Boston Bioproducts, BP-115DG)-10 mM Tris-HCl pH 7.5, 1 mM EDTA, 400 mM NaCl, 0.5% NP-40 and 1 mM DTT, supplemented with protease inhibitor cocktail (Pierce, A32965) and phosphatase inhibitor (Thermo, 1861280). For immunoblotting 200 μg total protein extract was boiled in sample buffer and 15-25 μg aliquots were separated by SDS-PAGE and transferred onto Polyvinylidene Difluoride membrane (GE Healthcare, IPVH00010). The membrane was incubated for one hour in blocking buffer [Tris-buffered saline, 0.1% Tween (TBS-T), 5% nonfat dry milk followed by overnight incubation on a rocker at 4° C. with the primary antibody. Following a wash with TBS-T, the blot was incubated with horseradish peroxidase-conjugated secondary antibody for 2 hrs on a rocker at room temperature. The blots were washed again and signals were visualized using enhanced chemiluminescence system as per manufacturer's protocol (GE Healthcare) or Kwik Quant Imager (Kindle Biosciences). […]

| SMILES | p-MED1 levels |
| --- | --- |
| CCc1cnn2c(NCc3ccc[n+]([O-])c3)cc(N3CCCC[C@H]3CCO)nc12 [Dinaciclib] | completely abolished p-MED1 levels |
| CC(=O)Nc1cccc(-n2c(=O)n(C3CC3)c(=O)c3c(Nc4ccc(I)cc4F)n(C)c(=O)c(C)c32)c1 [trametinib] | did not result in loss of p-MED1 |
